Laboratory results: patent publication US20030162261A1
These are yes or no findings as the source states them, for the method shown. Binding seen in cells or lysates may run through a third protein. Some binding calls cover weakened binding; strength is not graded here.

Amino acid sequences for entries named in this document (tags omitted). A change or cut given only in a name is not applied to a line headed by its entry. Residues count along the entry.
UniProt Q9NPF7: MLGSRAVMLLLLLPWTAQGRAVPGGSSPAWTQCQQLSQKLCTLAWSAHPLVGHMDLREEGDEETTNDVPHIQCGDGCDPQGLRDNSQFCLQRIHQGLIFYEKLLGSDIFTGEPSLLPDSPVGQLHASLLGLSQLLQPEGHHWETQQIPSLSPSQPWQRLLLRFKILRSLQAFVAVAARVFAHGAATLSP
UniProt P29460, residues 23-328: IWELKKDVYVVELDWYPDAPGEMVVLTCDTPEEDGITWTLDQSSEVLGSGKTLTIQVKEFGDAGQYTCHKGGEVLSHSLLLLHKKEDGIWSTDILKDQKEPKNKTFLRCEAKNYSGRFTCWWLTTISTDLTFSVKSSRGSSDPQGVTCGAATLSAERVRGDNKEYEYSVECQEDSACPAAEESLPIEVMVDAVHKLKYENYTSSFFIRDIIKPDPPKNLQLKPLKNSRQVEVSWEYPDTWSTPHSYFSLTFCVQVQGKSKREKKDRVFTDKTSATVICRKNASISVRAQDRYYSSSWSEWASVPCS

Target: human FLAG-IL-B30 (human) (UniProt Q9NPF7)
Assay: coimmunoprecipitation from supernatant of cotransfected primate cells, PAGE

binding: binds
Substance: human IL-12 p40 (from UniProt P29460 23-328) (ligand)
